According to the supplement of paper PMC10670038:
± gives the standard deviation of the averaged measurements. What follows is the remainder of the data, with few or none of the lowest values.

These molecules were tested on TE10 (assay: relative cell viability vs DMSO, compound + 0.2 uM CuET (fraction); TE10 is an esophageal squamous carcinoma line; higher = less cytotoxic). Conditions: 2 µM; co-treatment: CuET (bis(diethyldithiocarbamate)copper) 0.2 uM; 48 h.
Method: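 TE10 ESCC cells (1,000/well, 384-well plates) were treated with Selleck bioactive library compounds at 2 uM combined with 0.2 uM CuET (copper diethyldithiocarbamate) for 48 h. Viability was read by CellTiter-Glo and expressed relative to DMSO wells. Two technical replicates (A, B).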
`Cc1c(C(=O)NN2CCCCC2)nn(-c2ccc(Cl)cc2Cl)c1-c1ccc(I)cc1` gave a relative cell viability of 1.27 ± 0.34.
